Some entries share one result that the patent states for a list of compounds. For at least one compound, name, drawing or mass did not settle the structure.
Tested on: normal MEC1 cells
Assay: Cell viability (CCK8) in normal MEC1 cells
Type: cell-based
Details: 100 μM
Description: FIGS. 2A and 2B illustrate the anticancer effects and selectivity of 5-FU and compounds 1a-1c. Cell viability was analyzed after the breast cancer MCF7 cells (FIG. 2A) and normal MEC1 cells (FIG. 2B) were treated with 5-FU or compounds 1a-1c at different concentrations. Data are presented as mean±SD, n=4.
Cell Counting Kit-8 (CCK8, Dojingo) was used to carry out the cytotoxicity assessment of the prodrugs. Seeded cells were treated with varying compound concentrations for 48-72 h and the CCK8 kit was used to measure the cytotoxicity. For NAC experiments, this ROS scavenger was pre-incubated with the cells for 2 h and then co-incubated with the prodrugs for additional 48 hours unless otherwise noted.
The anticancer effects of new compounds 1a and 1b were tested using the breast cancer MCF7 cells and normal MEC1 cells (FIGS. 2A and 2B). […] These differential killing results highlight the specificity of new prodrugs 1a-1b for cancer cells over normal cells. […] To further verify the role of ROS in the drug release process, the MTT assays was performed, using MCF7 cells pretreated with the ROS scavenger N-Acetyl-Cysteine (NAC).

O=c1[nH]c(=O)n(Cc2ccc(B(O)O)cc2)cc1F [Compound 1b, (4-((5-Fluoro-2,4-dioxo-3,4-dihydropyrimidin-I(2H)-yl)methyl)phenyl)boronic acid]
cell viability: > 95%

Reference: patent US20220041627A1, “PRODRUGS OF ANTI-CANCER AND ANTI-AUTOIMMUNE DISEASES THERAPEUTIC AGENTS, AND METHODS OF MAKING AND USE THEREOF” (UNIVERSITY OF MARYLAND, BALTIMORE, priority 2018, published 2022)
